Experimental data published in paper PMC4666396.
These are yes or no findings as the source states them, for the method shown. Binding seen in cells or lysates may run through a third protein. A yes stands for co-enrichment or nearness to the bait. Other partners may have been found. Blank lines part the entries; values can stand above or below the binder they belong to.

Tests used:
[1] = biological target: T1, Splicing factor 1 (SF1) (human (endogenous in HeLa)), Q15637; experiment: affinity purification with mass spectrometry; anti-SF1 on Protein G Sepharose; HeLa cell nuclear extract without or with 0.3 mg/ml RNase A; IP buffer 50 mM Tris-HCl pH 7.9, 100 mM NaCl, 0.05% NP-40, 0.5 mM DTT, 1 h 4°C; 1D PAGE, LC-MSMS; control mouse IgG; settings: remark: other sources report otherwise
T1 chain: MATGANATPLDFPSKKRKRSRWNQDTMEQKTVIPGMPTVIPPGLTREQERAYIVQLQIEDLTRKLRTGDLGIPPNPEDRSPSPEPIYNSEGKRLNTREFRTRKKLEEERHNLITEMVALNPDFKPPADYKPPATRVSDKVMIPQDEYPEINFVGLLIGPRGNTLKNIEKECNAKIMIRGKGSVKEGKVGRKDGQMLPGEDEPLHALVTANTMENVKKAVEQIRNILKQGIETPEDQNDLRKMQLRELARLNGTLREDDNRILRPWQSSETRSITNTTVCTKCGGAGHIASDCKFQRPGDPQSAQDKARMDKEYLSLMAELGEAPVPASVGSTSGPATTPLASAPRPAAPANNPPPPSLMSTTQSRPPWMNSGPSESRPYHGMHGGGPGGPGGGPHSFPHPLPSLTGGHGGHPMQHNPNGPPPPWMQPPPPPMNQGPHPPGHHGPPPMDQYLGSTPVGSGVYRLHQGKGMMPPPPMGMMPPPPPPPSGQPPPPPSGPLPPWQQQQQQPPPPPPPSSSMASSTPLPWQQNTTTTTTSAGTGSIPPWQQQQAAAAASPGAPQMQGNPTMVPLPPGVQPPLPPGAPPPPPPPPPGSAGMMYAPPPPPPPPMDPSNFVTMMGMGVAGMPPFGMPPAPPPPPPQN

[2] = biological target: T2, Splicing factor 1 (SF1) (human (endogenous in HeLa)) (UniProt Q15637); experiment: as above
T2 sequence: T1 chain

binding [1]: binds
B1: SPF45, Q96I25 1-401 (protein)
chain: MSLYDDLGVETSDSKTEGWSKNFKLLQSQLQVKKAALTQAKSQRTKQSTVLAPVIDLKRGGSSDDRQIVDTPPHVAAGLKDPVPSGFSAGEVLIPLADEYDPMFPNDYEKVVKRQREERQRQRELERQKEIEEREKRRKDRHEASGFARRPDPDSDEDEDYERERRKRSMGGAAIAPPTSLVEKDKELPRDFPYEEDSRPRSQSSKAAIPPPVYEEQDRPRSPTGPSNSFLANMGGTVAHKIMQKYGFREGQGLGKHEQGLSTALSVEKTSKRGGKIIVGDATEKDASKKSDSNPLTEILKCPTKVVLLRNMVGAGEVDEDLEVETKEECEKYGKVGKCVIFEIPGAPDDEAVRIFLEFERVESAIKAVVDLNGRYFGGRVVKACFYNLDKFRVLDLAEQV

binding [2]: binds
B2: ZNF598 (protein, UniProt Q86UK7 1-904)
chain: MAAAGGAEGRRAALEAAAAAAPERGGGSCVLCCGDLEATALGRCDHPVCYRCSTKMRVLCEQRYCAVCREELRQVVFGKKLPAFATIPIHQLQHEKKYDIYFADGKVYALYRQLLQHECPRCPELPPFSLFGDLEQHMRRQHELFCCRLCLQHLQIFTYERKWYSRKDLARHRMQGDPDDTSHRGHPLCKFCDERYLDNDELLKHLRRDHYFCHFCDSDGAQDYYSDYAYLREHFREKHFLCEEGRCSTEQFTHAFRTEIDLKAHRTACHSRSRAEARQNRHIDLQFSYAPRHSRRNEGVVGGEDYEEVDRYSRQGRVARAGTRGAQQSRRGSWRYKREEEDREVAAAVRASVAAQQQEEARRSEDQEEGGRPKKEEAAARGPEDPRGPRRSPRTQGEGPGPKETSTNGPVSQEAFSVTGPAAPGCVGVPGALPPPSPKLKDEDFPSLSASTSSSCSTAATPGPVGLALPYAIPARGRSAFQEEDFPALVSSVPKPGTAPTSLVSAWNSSSSSKKVAQPPLSAQATGSGQPTRKAGKGSRGGRKGGPPFTQEEEEDGGPALQELLSTRPTGSVSSTLGLASIQPSKVGKKKKVGSEKPGTTLPQPPPATCPPGALQAPEAPASRAEGPVAVVVNGHTEGPAPARSAPKEPPGLPRPLGSFPCPTPQEDFPALGGPCPPRMPPPPGFSAVVLLKGTPPPPPPGLVPPISKPPPGFSGLLPSPHPACVPSPATTTTTKAPRLLPAPRAYLVPENFRERNLQLIQSIRDFLQSDEARFSEFKSHSGEFRQGLISAAQYYKSCRDLLGENFQKVFNELLVLLPDTAKQQELLSAHTDFCNREKPLSTKSKKNKKSAWQATTQQAGLDCRVCPTCQQVLAHGDASSHQALHAARDDDFPSLQAIARIIT
